Assay results taken from the supplement of paper PMC8104966.
Some of the results follow. This data set is noisy: repeats of one test often differ as much as different tests do.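 U2OS cells expressing ACE2 were combined with U2OS cells expressing full-length spike, and imaging quantified fusion as the fraction of nuclei displaying both cell types' fluorescent markers. Non-toxic compounds with a fusion z-score under -3, i.e., over three standard deviations below the plate's DMSO wells, are called inhibitory hits.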

test system: U2OS ACE2 x SARS-CoV-2 spike co-culture; test: cell-cell fusion (fraction fused) z-score vs plate DMSO control; higher = more fusion; settings: 30 µM; 5 h; toxicity class: non-toxic, passed QC

Compound | cell-cell fusion (z-score)
CC(=O)SC1CC2=CC(=O)CC[C@]2(C)C2CC[C@@]3(C)C(CC[C@@]34CCC(=O)O4)C12 (some centres undefined) [Spironolactone] | inactive: 2
Cc1ncc(C[n+]2csc(CCO)c2C)c(N)n1.Cl.[Cl-] [Thiamine hydrochloride] | inactive: 2.02
CC(=O)OCC1=C(C(=O)[O-])N2C(=O)[C@@H](NC(=O)CSc3ccncc3)[C@H]2SC1.[Na+] | inactive: 1.38
CC(=O)OCC(=O)[C@@]12N=C(C)O[C@@H]1CC1C3CCC4=CC(=O)C=C[C@]4(C)C3[C@@H](O)C[C@@]12C (some centres undefined) | inactive: 1.01
CN(C)CC/C=C1/c2ccccc2COc2ccccc21.Cl | inactive: 1.73
Nc1nc2ncc(=O)[nH]c2c(=O)[nH]1 | inactive: 2.53
CC(C)NC(C)Cc1ccc(I)cc1.Cl (centres undefined) [Iofetamine hydrochloride] | inactive: 1.05
N=C(N)c1ccc(OCCCCCOc2ccc(C(=N)N)cc2)cc1.O=S(=O)(O)CCO.O=S(=O)(O)CCO | inactive: 2.03
N=C(N)c1ccc(OCCCCCOc2ccc(C(=N)N)cc2)cc1.O=S(=O)(O)CCO.O=S(=O)(O)CCO [Pentamidine isethionate] | inactive: -0.293
CC1=C(C(=O)O)N2C(=O)[C@@H](NC(=O)C(N)c3ccccc3)[C@H]2SC1 (some centres undefined) [Cephalexin hydrate] | inactive: 2.19
CC1=C(C(=O)O)N2C(=O)[C@@H](NC(=O)C(N)c3ccccc3)[C@H]2SC1 (some centres undefined) | inactive: 1.08
COc1ccccc1OCC(O)COC(N)=O (centres undefined) | inactive: -0.726
C#CCN(C)Cc1ccccc1.Cl [Pargyline hydrochloride] | inactive: 0.721
C#CCN(C)Cc1ccccc1.Cl | inactive: 0.685
CO[C@H]1CC(O[C@@H]2/C(C)=C/C[C@@H]3C[C@@H](C[C@]4(CC[C@H](C)[C@@H](C5CCCCC5)O4)O3)OC(=O)[C@@H]3C=C(C)/C(=N/O)[C@H]4OC/C(=C\C=C\[C@@H]2C)[C@]43O)O[C@@H](C)C1O (some centres undefined) | inactive: -1.71
Nc1nc2c(ncn2[C@@H]2O[C@H](CO)[C@@H](O)[C@@H]2O)c(=O)[nH]1 [Ara-G hydrate] | inactive: 1.14
C=C1c2cccc(O)c2C(=O)C2=C(O)[C@]3(O)C(=O)C(C(N)=O)=C(O)[C@@H](N(C)C)[C@@H]3[C@@H](O)[C@H]12.Cl [Methacycline hydrochloride] | inactive: 1.69
CCCOc1cc(N)ccc1C(=O)OCCN(CC)CC.Cl | inactive: 1.44
CS(=O)(=O)O.CSc1ccc2c(c1)C(N1CCN(C)CC1)Cc1ccccc1S2 (centres undefined) | active: -4.8

A different layout for some results above.
Compound,cell-cell fusion (z-score)
C#CCN(C)Cc1ccccc1.Cl [Pargyline hydrochloride],inactive: 0.721
C#CCN(C)Cc1ccccc1.Cl,inactive: 0.685
CO[C@H]1CC(O[C@@H]2/C(C)=C/C[C@@H]3C[C@@H](C[C@]4(CC[C@H](C)[C@@H](C5CCCCC5)O4)O3)OC(=O)[C@@H]3C=C(C)/C(=N/O)[C@H]4OC/C(=C\C=C\[C@@H]2C)[C@]43O)O[C@@H](C)C1O (some centres undefined),inactive: -1.71
Nc1nc2c(ncn2[C@@H]2O[C@H](CO)[C@@H](O)[C@@H]2O)c(=O)[nH]1 [Ara-G hydrate],inactive: 1.14
